Structures can show the parent of a compound that is named as a salt. Single values of this set are uncertain.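 Viability of TSC2-lost, immortalized human renal angiomyolipoma cells bearing an empty vector was measured by luminescent ATP assay, normalized to each plate's vehicle-treated wells, in low-serum medium, where TSC2-rescued cells do not grow.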
Test system: 621-102 (TSC2-deficient)
Assay: relative viability vs DMSO (fraction); higher = less cytotoxic
Details: serum: 0.1% FBS, 72 h

With `COc1cc(Nc2ncc3c(n2)-c2ccc(Cl)cc2C(c2c(F)cccc2OC)=NC3)ccc1C(=O)O` [MLN8237] the relative viability (0.0128 nM) was 0.927, the relative viability (0.064 nM) was 0.845 and the relative viability (0.32 nM) was 0.89. It also gave a relative viability (1.6 nM) of 0.854, a relative viability (8 nM) of 0.836 and a relative viability (40 nM) of 0.304. For the same compound, the relative viability (200 nM) was 0.0373, the relative viability (1000 nM) was 0.0368 and the relative viability (5000 nM) was 0.0367.

Work on `Cc1c(CN2CCN(C(=O)[C@H](C)O)CC2)sc2c(N3CCOCC3)nc(-c3cnc(N)nc3)nc12` [GDC-0980] yielded a relative viability (0.0128 nM) of 0.833, a relative viability (0.064 nM) of 0.86 and a relative viability (0.32 nM) of 0.88. The relative viability (1.6 nM) was 0.933, the relative viability (8 nM) was 0.912 and the relative viability (40 nM) was 0.882. The relative viability (200 nM) was 0.814, the relative viability (1000 nM) was 0.655 and the relative viability (5000 nM) was 0.42.

With `N[C@@H](CC(=O)N1CCn2c(nnc2C(F)(F)F)C1)Cc1cc(F)c(F)cc1F` [Sitagliptin phosphate monohydrate] the relative viability (0.0128 nM) was 0.762, the relative viability (0.064 nM) was 0.816 and the relative viability (0.32 nM) was 0.736. It also gave a relative viability (1.6 nM) of 0.667, a relative viability (8 nM) of 0.7 and a relative viability (40 nM) of 0.653. For the same compound, the relative viability (200 nM) was 0.598, the relative viability (1000 nM) was 0.627 and the relative viability (5000 nM) was 0.598.

`Cc1cc2c(s1)Nc1ccccc1N=C2N1CCN(C)CC1` [Olanzapine] gave a relative viability (0.0128 nM) of 1.07, a relative viability (0.064 nM) of 0.856 and a relative viability (0.32 nM) of 0.636. The relative viability (1.6 nM) was 0.964, the relative viability (8 nM) was 0.919 and the relative viability (40 nM) was 0.198. For the same compound, the relative viability (200 nM) was 0.0464, the relative viability (1000 nM) was 0.0366 and the relative viability (5000 nM) was 0.0431.

Compound `O=C(CN1C(=O)C2(CCCC2)NC[C@H]1c1cc(F)cc(F)c1)Nc1ccc2c(c1)C[C@@]1(C2)C(=O)Nc2ncccc21` [MK 3207 hydrochloride] has a relative viability (0.0128 nM) of 0.862, a relative viability (0.064 nM) of 0.871 and a relative viability (0.32 nM) of 0.799. It also gave a relative viability (1.6 nM) of 0.752, a relative viability (8 nM) of 0.842 and a relative viability (40 nM) of 0.771. It also gave a relative viability (200 nM) of 0.795, a relative viability (1000 nM) of 0.916 and a relative viability (5000 nM) of 0.733.

`Clc1ccc(Nc2nnc(Cc3ccncc3)c3ccccc23)cc1` [Vatalanib] showed a relative viability (0.0128 nM) of 0.638, a relative viability (0.064 nM) of 0.79 and a relative viability (0.32 nM) of 0.738. The relative viability (1.6 nM) was 0.748, the relative viability (8 nM) was 0.664 and the relative viability (40 nM) was 0.575. For the same compound, the relative viability (200 nM) was 0.66, the relative viability (1000 nM) was 0.457 and the relative viability (5000 nM) was 0.509.

For `C=CC(=O)Nc1cccc(Oc2nc(Nc3ccc(N4CCN(C)CC4)cc3)ncc2Cl)c1` [WZ3146], the relative viability (0.0128 nM) was 0.789, the relative viability (0.064 nM) was 0.782 and the relative viability (0.32 nM) was 0.828. It also gave a relative viability (1.6 nM) of 0.355, a relative viability (8 nM) of 0.776 and a relative viability (40 nM) of 0.764. It also gave a relative viability (200 nM) of 0.647, a relative viability (1000 nM) of 0.0565 and a relative viability (5000 nM) of 0.00569.

`CC(C)OC(=O)C1=CN(C(=O)c2ccc(F)c(F)c2)CC(C)(C)c2c1[nH]c1ccccc21` showed a relative viability (0.0128 nM) of 0.817, a relative viability (0.064 nM) of 0.873 and a relative viability (0.32 nM) of 0.875. The relative viability (1.6 nM) was 0.866, the relative viability (8 nM) was 0.769 and the relative viability (40 nM) was 0.745. The relative viability (200 nM) was 0.724, the relative viability (1000 nM) was 0.755 and the relative viability (5000 nM) was 0.728.

Compound `CCCCCCCCCCCCCCCC(=O)OC[C@H](O)[C@H]1OC(=O)C(O)=C1O` [L-Ascorbyl 6-palmitate] has a relative viability (0.0128 nM) of 0.109, a relative viability (0.064 nM) of 0.0552 and a relative viability (0.32 nM) of 0.67. The relative viability (1.6 nM) was 0.72, the relative viability (8 nM) was 0.149 and the relative viability (40 nM) was 0.681. It also gave a relative viability (200 nM) of 0.597, a relative viability (1000 nM) of 0.728 and a relative viability (5000 nM) of 0.171.

Work on `CN(C)Cc1ccc(-c2nc3cccc4c3n2CCNC4=O)cc1` yielded a relative viability (0.0128 nM) of 0.975, a relative viability (0.064 nM) of 0.901 and a relative viability (0.32 nM) of 0.827. The relative viability (1.6 nM) was 0.806, the relative viability (8 nM) was 0.702 and the relative viability (40 nM) was 0.777. For the same compound, the relative viability (200 nM) was 0.804, the relative viability (1000 nM) was 0.773 and the relative viability (5000 nM) was 0.624.

`Nc1cc(C(F)(F)F)c(-c2cc(N3CCOCC3)nc(N3CCOCC3)n2)cn1` [BKM120 (NVP-BKM120)] gave a relative viability (0.0128 nM) of 0.939, a relative viability (0.064 nM) of 1.02 and a relative viability (0.32 nM) of 0.97. For the same compound, the relative viability (1.6 nM) was 0.894, the relative viability (8 nM) was 0.929 and the relative viability (40 nM) was 1.02. For the same compound, the relative viability (200 nM) was 0.877, the relative viability (1000 nM) was 0.852 and the relative viability (5000 nM) was 0.0802.

For `CCS(=O)(=O)Nc1ccc2c(c1)/C(=C(/Nc1ccc(CN3CCCCC3)cc1)c1ccccc1)C(=O)N2` [Hesperadin], the relative viability (0.0128 nM) was 0.878, the relative viability (0.064 nM) was 0.748 and the relative viability (0.32 nM) was 0.881. It also gave a relative viability (1.6 nM) of 0.897, a relative viability (8 nM) of 0.343 and a relative viability (40 nM) of 0.0346. It also gave a relative viability (200 nM) of 0.0223, a relative viability (1000 nM) of 0.00646 and a relative viability (5000 nM) of 0.00811.

`Cn1cncc1[C@@](N)(c1ccc(Cl)cc1)c1ccc2c(c1)c(-c1cccc(Cl)c1)cc(=O)n2C` [Tipifarnib] showed a relative viability (0.0128 nM) of 0.957, a relative viability (0.064 nM) of 0.801 and a relative viability (0.32 nM) of 0.803. For the same compound, the relative viability (1.6 nM) was 0.805, the relative viability (8 nM) was 0.713 and the relative viability (40 nM) was 0.314. The relative viability (200 nM) was 0.00794, the relative viability (1000 nM) was 0.00636 and the relative viability (5000 nM) was 0.00741.

For `CN(C)C/C=C/C(=O)Nc1cc2c(Nc3ccc(F)c(Cl)c3)ncnc2cc1O[C@H]1CCOC1` [BIBW2992], the relative viability (0.0128 nM) was 0.776, the relative viability (0.064 nM) was 0.721 and the relative viability (0.32 nM) was 0.705. The relative viability (1.6 nM) was 0.656, the relative viability (8 nM) was 0.616 and the relative viability (40 nM) was 0.611. For the same compound, the relative viability (200 nM) was 0.56, the relative viability (1000 nM) was 0.28 and the relative viability (5000 nM) was 0.0129.

`CN(C)Cc1cccc(N=C(c2ccccc2)c2c(O)[nH]c3cc(C(=O)N(C)C)ccc23)c1` was tested, and the relative viability (0.0128 nM) was 0.836, the relative viability (0.064 nM) was 0.736 and the relative viability (0.32 nM) was 0.827. For the same compound, the relative viability (1.6 nM) was 0.823, the relative viability (8 nM) was 0.845 and the relative viability (40 nM) was 0.774. For the same compound, the relative viability (200 nM) was 0.891, the relative viability (1000 nM) was 0.9 and the relative viability (5000 nM) was 0.798.

With `Cn1cc(-c2ccc3nnc(C(F)(F)c4ccc5ncccc5c4)n3n2)cn1` the relative viability (0.0128 nM) was 0.705, the relative viability (0.064 nM) was 0.555 and the relative viability (0.32 nM) was 0.636. For the same compound, the relative viability (1.6 nM) was 0.611, the relative viability (8 nM) was 0.603 and the relative viability (40 nM) was 0.652. It also gave a relative viability (200 nM) of 0.673, a relative viability (1000 nM) of 0.698 and a relative viability (5000 nM) of 0.514.

Work on `CC[C@H](c1ccc(O)cc1)[C@@H](CC)c1ccc(O)cc1` [Hexestrol] yielded a relative viability (0.0128 nM) of 0.934, a relative viability (0.064 nM) of 1.03 and a relative viability (0.32 nM) of 1.05. The relative viability (1.6 nM) was 0.903, the relative viability (8 nM) was 0.898 and the relative viability (40 nM) was 0.917. For the same compound, the relative viability (200 nM) was 0.866, the relative viability (1000 nM) was 0.778 and the relative viability (5000 nM) was 0.0962.

`CC(C)[C@H](O)C(=O)N[C@@H](C)C(=O)N[C@@H]1C(=O)N(C)CCc2ccccc21` was tested, and the relative viability (0.0128 nM) was 0.721, the relative viability (0.064 nM) was 0.864 and the relative viability (0.32 nM) was 0.896. The relative viability (1.6 nM) was 0.737, the relative viability (8 nM) was 0.707 and the relative viability (40 nM) was 0.798. For the same compound, the relative viability (200 nM) was 0.812, the relative viability (1000 nM) was 0.685 and the relative viability (5000 nM) was 0.734.

`COc1cc2nc(N3CCN(C(=O)C4COc5ccccc5O4)CC3)nc(N)c2cc1OC` (stereo not drawn) [Doxazosin Mesylate] showed a relative viability (0.0128 nM) of 0.922, a relative viability (0.064 nM) of 0.933 and a relative viability (0.32 nM) of 0.865. For the same compound, the relative viability (1.6 nM) was 0.848, the relative viability (8 nM) was 0.885 and the relative viability (40 nM) was 0.828. It also gave a relative viability (200 nM) of 0.799, a relative viability (1000 nM) of 0.743 and a relative viability (5000 nM) of 0.604.

`COCCCOc1cc(C[C@@H](C[C@H](N)[C@@H](O)C[C@H](C(=O)NCC(C)(C)C(N)=O)C(C)C)C(C)C)ccc1OC` [Aliskiren Hemifumarate] gave a relative viability (0.0128 nM) of 0.837, a relative viability (0.064 nM) of 0.674 and a relative viability (0.32 nM) of 0.7. It also gave a relative viability (1.6 nM) of 0.774, a relative viability (8 nM) of 0.65 and a relative viability (40 nM) of 0.694. The relative viability (200 nM) was 0.703, the relative viability (1000 nM) was 0.665 and the relative viability (5000 nM) was 0.515.

`C#Cc1cccc(Nc2ncnc3cc(OCCOC)c(OCCO)cc23)c1` [OSI-420] gave a relative viability (0.0128 nM) of 1, a relative viability (0.064 nM) of 1.02 and a relative viability (0.32 nM) of 1.61. The relative viability (1.6 nM) was 1.61, the relative viability (8 nM) was 0.665 and the relative viability (40 nM) was 1.55. For the same compound, the relative viability (200 nM) was 0.53, the relative viability (1000 nM) was 0.0806 and the relative viability (5000 nM) was 0.0707.

`C=CC(=O)N1CCC[C@@H](n2nc(-c3ccc(Oc4ccccc4)cc3)c3c(N)ncnc32)C1` was tested, and the relative viability (0.0128 nM) was 0.918, the relative viability (0.064 nM) was 0.931 and the relative viability (0.32 nM) was 0.758. The relative viability (1.6 nM) was 0.875, the relative viability (8 nM) was 0.728 and the relative viability (40 nM) was 0.755. It also gave a relative viability (200 nM) of 0.732, a relative viability (1000 nM) of 0.643 and a relative viability (5000 nM) of 0.272.

Source: the supplement of paper PMC8960247
